PubChem BioAssay AID1508597 – Cure First | 2020

Assay: 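Survival screen with siRNA in ovarian cancer cells derived from patients, with or without rucaparib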 (primary screen)
System: human ovarian carcinoma lines grown from tumours: OCI-P5x (papillary serous) and OCI-C5x (clear cell)
Reagent: siRNA pool against human genes, 1.25 pmol siRNA per well
Time to read-out: 72 h or 96 h, depending on the cell culture
Challenge: rucaparib 20 µM (about IC30) or vehicle, present until read-out
Rucaparib or vehicle: Rucaparib
Cell line: OCI-P5x (serous)
Detection: 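Luminescent ATP-based viability assay read 72 or 96 h after transfection, depending on culture, given as normalised percent viability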
Reading the numbers: viability, normalised: higher = more viable cells remaining
Active means: 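Active when normalised viability falls below 80 percent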
Calls: active = viability under 80%; inactive = viability 80% or more
Shown is an unselected part of the about 2,100 reagents, in one setting of the screen. 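Calls flag viability under 80% in either arm, not effects specific to rucaparib; the reference for percent is not stated.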 A reagent listed more than once was tested more than once; the source does not tell the runs apart. The record does not give: the 100% reference.

| Gene | PubChem SID | technical replicate | viability, normalised (%) | outcome |
| --- | --- | --- | --- | --- |
| POT1 | SID405528261 | 1 | 53.3 | active |
| POT1 | SID405528261 | 2 | 63.9 | active |
| POT1 | SID405528261 | 3 | 58 | active |
| SFMBT2 | SID405527292 | 1 | 55.4 | active |
| SFMBT2 | SID405527292 | 2 | 51.7 | active |
| SFMBT2 | SID405527292 | 3 | 37.9 | active |
| CSNK1G2 | SID405527367 | 1 | 91.2 | inactive |
| CSNK1G2 | SID405527367 | 2 | 93.8 | inactive |
| CSNK1G2 | SID405527367 | 3 | 90.9 | inactive |
| PIK3R2 | SID405528504 | 1 | 121 | inactive |
| PIK3R2 | SID405528504 | 2 | 85.7 | inactive |
| PIK3R2 | SID405528504 | 3 | 89.6 | inactive |
| PCNA | SID405528262 | 1 | 78.4 | active |
| PCNA | SID405528262 | 2 | 61.9 | active |
| PCNA | SID405528262 | 3 | 55.1 | active |
| BRD8 | SID405528044 | 1 | 55.3 | active |
| BRD8 | SID405528044 | 2 | 63.8 | active |
| BRD8 | SID405528044 | 3 | 74.5 | active |
| CDKL2 | SID405527489 | 1 | 121 | inactive |
| CDKL2 | SID405527489 | 2 | 68.9 | active |
| CDKL2 | SID405527489 | 3 | 114 | inactive |

The list goes on; the last 6 above are carried over.
| Gene | PubChem SID | technical replicate | viability, normalised (%) | outcome |
| --- | --- | --- | --- | --- |
| BRD8 | SID405528044 | 1 | 55.3 | active |
| BRD8 | SID405528044 | 2 | 63.8 | active |
| BRD8 | SID405528044 | 3 | 74.5 | active |
| CDKL2 | SID405527489 | 1 | 121 | inactive |
| CDKL2 | SID405527489 | 2 | 68.9 | active |
| CDKL2 | SID405527489 | 3 | 114 | inactive |
| NR4A2 | SID405527089 | 1 | 43.2 | active |
| NR4A2 | SID405527089 | 2 | 54.7 | active |
| NR4A2 | SID405527089 | 3 | 50.4 | active |
| BAIAP2 | SID405527741 | 1 | 98.1 | inactive |
| BAIAP2 | SID405527741 | 2 | 97 | inactive |
| BAIAP2 | SID405527741 | 3 | 69.1 | active |
| FN3K | SID405527709 | 1 | 104 | inactive |
| FN3K | SID405527709 | 2 | 107 | inactive |
| FN3K | SID405527709 | 3 | 95.2 | inactive |
| CABIN1 | SID405528063 | 1 | 69.3 | active |
| CABIN1 | SID405528063 | 2 | 62.4 | active |
| CABIN1 | SID405528063 | 3 | 71.9 | active |
| TXK | SID405526400 | 1 | 77.6 | active |
| TXK | SID405526400 | 1 | 59.8 | active |
| TXK | SID405526400 | 2 | 79.5 | active |
| TXK | SID405526400 | 2 | 52.3 | active |
| TXK | SID405526400 | 3 | 67.6 | active |
| TXK | SID405526400 | 3 | 65.7 | active |
| SLC1A4 | SID405526475 | 1 | 56.5 | active |
| SLC1A4 | SID405526475 | 2 | 50.2 | active |
| SLC1A4 | SID405526475 | 3 | 55.7 | active |
| CAMK2G | SID405526438 | 1 | 83.3 | inactive |
| CAMK2G | SID405526438 | 1 | 49.5 | active |
| CAMK2G | SID405526438 | 2 | 58.3 | active |
| CAMK2G | SID405526438 | 2 | 82.8 | inactive |
| CAMK2G | SID405526438 | 3 | 65.1 | active |
| CAMK2G | SID405526438 | 3 | 90.6 | inactive |
| TOP3B | SID405528498 | 1 | 93.9 | inactive |
| TOP3B | SID405528498 | 2 | 112 | inactive |
| TOP3B | SID405528498 | 3 | 85.5 | inactive |
| CSMD3 | SID405526467 | 1 | 82.9 | inactive |
| CSMD3 | SID405526467 | 2 | 86.7 | inactive |
| CSMD3 | SID405526467 | 3 | 82.2 | inactive |
| RING1 | SID405527248 | 1 | 45.9 | active |
| RING1 | SID405527248 | 2 | 47.3 | active |
| RING1 | SID405527248 | 3 | 53.3 | active |
